From the supplement of paper PMC6078165
± gives the standard deviation of the averaged measurements. The reference is the same well before dosing, and untreated signal decays as well.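 Labels refer to human fibroblasts, largely primary: uterine (C12385, HUF), lung (H6013), bone (Hs27A), adrenal (HADF), skin (WS1), plus mammary HMF and breast cancer-associated Hs343T. Cancer lines are basal-like or mesenchymal-like triple-negative breast cancer. The paper counts as hits responses shifting over 3x the replicate standard deviation. The tissue of the other fibroblasts is not given here.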

Tested on: HCC1143
Assay: relative JC-1 red fluorescence (viability) vs pre-drug, coculture with fibroblast (fraction); higher = more viable cancer cells
Method: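 JC-1 labelled TNBC cells cocultured 1:1 (1,500 cells each) with CellTrace Violet stained primary or stromal fibroblasts in 384-well plates in FluoroBrite medium, treated with one of 42 anticancer drugs at 0.1, 1, 10 or 100 uM. JC-1 red fluorescence (mitochondrial integrity in cancer cells only) was read by plate reader every 8 h for 72 h. Values are normalised to each well's pre-drug value. The stock of one drug was tenfold lower, so its dose labels may be too high.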

CC(=O)O[C@@]12CO[C@@H]1C[C@H](O)[C@@]1(C)C(=O)[C@H](O)C3=C(C)[C@@H](OC(=O)[C@H](O)[C@@H](NC(=O)OC(C)(C)C)c4ccccc4)C[C@@](O)([C@@H](OC(=O)c4ccccc4)[C@H]21)C3(C)C [Docetaxel]
relative JC-1 red fluorescence
Conditions	8 h	16 h	24 h	32 h	40 h	48 h	56 h	64 h	72 h
10 µM, coculture fibroblast: C12385	0.852 ± 0.017	0.759 ± 0.0014	0.668 ± 0.012	0.572 ± 0.029	0.502 ± 0.008	0.4663 ± 0.0027	0.4332 ± 0.00034	0.406 ± 0.0089	0.401 ± 0.0096
10 µM, coculture fibroblast: H6013	0.798 ± 0.0088	0.732 ± 0.0098	0.686 ± 0.013	0.656 ± 0.013	0.589 ± 0.018	0.593 ± 0.024	0.576 ± 0.023	0.57 ± 0.023	0.5176 ± 0.00089
10 µM, coculture fibroblast: H6019	0.8559 ± 0.0055	0.769 ± 0.011	0.707 ± 0.0081	0.65 ± 0.013	0.624 ± 0.021	0.629 ± 0.03	0.597 ± 0.021	0.575 ± 0.028	0.558 ± 0.036
10 µM, coculture fibroblast: H6076	0.812 ± 0.021	0.816 ± 0.035	0.761 ± 0.039	0.712 ± 0.016	0.649 ± 0.022	0.633 ± 0.028	0.612 ± 0.033	0.589 ± 0.036	0.622 ± 0.034
10 µM, coculture fibroblast: H6231	0.83 ± 0.029	0.825 ± 0.02	0.701 ± 0.045	0.616 ± 0.058	0.546 ± 0.042	0.501 ± 0.049	0.46 ± 0.041	0.423 ± 0.046	0.413 ± 0.047
10 µM, coculture fibroblast: HADF	0.7533 ± 0.0043	0.6928 ± 0.0041	0.648 ± 0.01	0.623 ± 0.021	0.527 ± 0.021	0.508 ± 0.017	0.472 ± 0.011	0.454 ± 0.016	0.402 ± 0.01
10 µM, coculture fibroblast: HCFa	0.815 ± 0.022	0.74 ± 0.032	0.67 ± 0.056	0.618 ± 0.055	0.524 ± 0.05	0.496 ± 0.052	0.434 ± 0.046	0.417 ± 0.048	0.373 ± 0.058
10 µM, coculture fibroblast: HCPF	0.8457 ± 0.0068	0.857 ± 0.031	0.814 ± 0.023	0.73671 ± 0.00021	0.727 ± 0.013	0.683 ± 0.027	0.645 ± 0.014	0.609 ± 0.017	0.604 ± 0.013
10 µM, coculture fibroblast: HHSteC	0.844 ± 0.022	0.79 ± 0.052	0.746 ± 0.071	0.704 ± 0.098	0.645 ± 0.13	0.634 ± 0.13	0.584 ± 0.11	0.56 ± 0.11	0.496 ± 0.093
10 µM, coculture fibroblast: HMF	0.8099 ± 0.0079	0.792 ± 0.01	0.7258 ± 0.0062	0.7016 ± 0.0044	0.634 ± 0.011	0.606 ± 0.025	0.557 ± 0.012	0.54 ± 0.0098	0.533 ± 0.0063
10 µM, coculture fibroblast: HPFa	0.894 ± 0.022	0.787 ± 0.026	0.71 ± 0.023	0.591 ± 0.009	0.531 ± 0.0083	0.503 ± 0.016	0.463 ± 0.019	0.45 ± 0.018	0.435 ± 0.021
10 µM, coculture fibroblast: HUF	0.88 ± 0.026	0.768 ± 0.035	0.681 ± 0.046	0.568 ± 0.029	0.489 ± 0.023	0.463 ± 0.023	0.426 ± 0.024	0.4 ± 0.033	0.391 ± 0.042
10 µM, coculture fibroblast: Hs5	0.8635 ± 0.0025	0.8521 ± 0.0017	0.8047 ± 0.0019	0.7814 ± 0.0058	0.6694 ± 0.0048	0.633 ± 0.017	0.604 ± 0.017	0.5813 ± 0.0038	0.6118 ± 0.0016
10 µM, coculture fibroblast: Hs27A	0.6953 ± 0.0015	0.629 ± 0.024	0.557 ± 0.014	0.55 ± 0.0073	0.438 ± 0.018	0.439 ± 0.017	0.409 ± 0.015	0.396 ± 0.021	0.338 ± 0.013
10 µM, coculture fibroblast: Hs343T	0.822 ± 0.011	0.876 ± 0.036	0.798 ± 0.042	0.675 ± 0.019	0.627 ± 0.027	0.576 ± 0.019	0.51 ± 0.011	0.472 ± 0.0049	0.428 ± 0.011
10 µM, coculture fibroblast: WS1	0.84 ± 0.009	0.732 ± 0.035	0.642 ± 0.053	0.529 ± 0.087	0.465 ± 0.096	0.443 ± 0.093	0.412 ± 0.091	0.396 ± 0.1	0.386 ± 0.11
100 µM, coculture fibroblast: C12385	0.88 ± 0.018	0.811 ± 0.013	0.68 ± 0.032	0.573 ± 0.046	0.482 ± 0.065	0.43 ± 0.069	0.378 ± 0.072	0.342 ± 0.061	0.321 ± 0.065
100 µM, coculture fibroblast: H6013	0.803 ± 0.03	0.728 ± 0.061	0.678 ± 0.08	0.652 ± 0.11	0.612 ± 0.15	0.626 ± 0.17	0.621 ± 0.17	0.618 ± 0.18	0.579 ± 0.16
100 µM, coculture fibroblast: H6019	0.848 ± 0.029	0.757 ± 0.021	0.69 ± 0.021	0.61 ± 0.02	0.556 ± 0.013	0.538 ± 0.015	0.506 ± 0.0086	0.483 ± 0.0077	0.452 ± 0.0054
100 µM, coculture fibroblast: H6076	0.8065 ± 0.0012	0.853 ± 0.017	0.759 ± 0.028	0.656 ± 0.044	0.612 ± 0.036	0.575 ± 0.044	0.546 ± 0.068	0.519 ± 0.055	0.527 ± 0.073
100 µM, coculture fibroblast: H6231	0.816 ± 0.016	0.869 ± 0.011	0.7511 ± 0.0046	0.578 ± 0.031	0.595 ± 0.015	0.5313 ± 0.0016	0.466 ± 0.0073	0.42 ± 0.018	0.402 ± 0.0046
100 µM, coculture fibroblast: HADF	0.759 ± 0.023	0.678 ± 0.033	0.619 ± 0.049	0.593 ± 0.044	0.495 ± 0.026	0.47 ± 0.017	0.4398 ± 0.00083	0.4205 ± 0.00098	0.39 ± 0.0097
100 µM, coculture fibroblast: HCFa	0.7768 ± 0.0026	0.667 ± 0.0073	0.603 ± 0.017	0.551 ± 0.01	0.4617 ± 0.0022	0.4318 ± 0.0025	0.396 ± 0.0077	0.384 ± 0.0066	0.361 ± 0.0061
100 µM, coculture fibroblast: HCPF	0.8406 ± 0.0042	0.89 ± 0.023	0.78 ± 0.036	0.64797 ± 0.00042	0.642 ± 0.029	0.574 ± 0.026	0.514 ± 0.0066	0.4726 ± 0.0042	0.448 ± 0.022
100 µM, coculture fibroblast: HHSteC	0.833 ± 0.022	0.756 ± 0.022	0.726 ± 0.048	0.683 ± 0.053	0.605 ± 0.049	0.577 ± 0.053	0.532 ± 0.054	0.506 ± 0.036	0.452 ± 0.038
100 µM, coculture fibroblast: HMF	0.832 ± 0.012	0.846 ± 0.027	0.746 ± 0.026	0.6177 ± 0.0028	0.575 ± 0.021	0.526 ± 0.013	0.473 ± 0.008	0.4427 ± 0.0038	0.4189 ± 0.0028
100 µM, coculture fibroblast: HPFa	0.951 ± 0.039	0.901 ± 0.066	0.832 ± 0.079	0.709 ± 0.11	0.627 ± 0.12	0.597 ± 0.13	0.55 ± 0.13	0.531 ± 0.13	0.518 ± 0.14
100 µM, coculture fibroblast: HUF	0.92 ± 0.019	0.80255 ± 0.00071	0.661 ± 0.056	0.53 ± 0.089	0.451 ± 0.1	0.412 ± 0.11	0.357 ± 0.099	0.326 ± 0.12	0.31 ± 0.11
100 µM, coculture fibroblast: Hs5	0.857 ± 0.0027	0.866 ± 0.024	0.791 ± 0.019	0.7165 ± 0.0028	0.614 ± 0.011	0.559 ± 0.0046	0.521 ± 0.0058	0.493 ± 0.01	0.497 ± 0.019
100 µM, coculture fibroblast: Hs27A	0.771 ± 0.022	0.697 ± 0.041	0.63 ± 0.04	0.626 ± 0.051	0.502 ± 0.045	0.487 ± 0.04	0.453 ± 0.047	0.441 ± 0.05	0.409 ± 0.078
100 µM, coculture fibroblast: Hs343T	0.817 ± 0.014	0.879 ± 0.019	0.786 ± 0.042	0.643 ± 0.057	0.616 ± 0.043	0.532 ± 0.061	0.475 ± 0.078	0.435 ± 0.078	0.408 ± 0.074
100 µM, coculture fibroblast: WS1	0.865 ± 0.016	0.7391 ± 0.0034	0.62 ± 0.0095	0.512 ± 0.025	0.4407 ± 0.0032	0.3939 ± 0.0024	0.356 ± 0.0079	0.317 ± 0.0096	0.297 ± 0.015
